Changes are numbered by the printed parent chain. Results are given in words; binding and its absence hold for the method and conditions named. In cells and extracts the contact can be indirect. Some binding calls cover weakened binding; strength is not graded here. Where a sequence is shown, tags or fusion partners need not be part of it.
Tests used:
[1] = target: T1, GFP-RAD52 WT (human) (UniProt P43351); assay: co-IP; as a1, with cell lysates treated with ethidium bromide (0.1 mg/ml) for 30 min
T1 sequence: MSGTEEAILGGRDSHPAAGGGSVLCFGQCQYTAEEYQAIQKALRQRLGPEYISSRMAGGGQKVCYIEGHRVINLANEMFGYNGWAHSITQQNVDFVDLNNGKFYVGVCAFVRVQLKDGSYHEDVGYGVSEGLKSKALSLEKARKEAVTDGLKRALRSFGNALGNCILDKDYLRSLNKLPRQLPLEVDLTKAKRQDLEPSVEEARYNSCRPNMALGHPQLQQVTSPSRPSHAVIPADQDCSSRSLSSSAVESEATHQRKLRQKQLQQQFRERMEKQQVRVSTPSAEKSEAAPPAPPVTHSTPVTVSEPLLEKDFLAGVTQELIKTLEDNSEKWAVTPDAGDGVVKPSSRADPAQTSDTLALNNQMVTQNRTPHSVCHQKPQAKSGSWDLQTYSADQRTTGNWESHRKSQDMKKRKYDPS

[2] = target: T1, GFP-RAD52 WT (human); assay: co-IP; anti-GFP immunoprecipitation (anti-GFP monoclonal antibody and protein G-Sepharose, 4°C overnight) of GFP-RAD52 from lysates of Flp-in TREX KR-TRF1 293 cells; KR-TRF1 induced with tetracycline 2 μg/ml for 24 h; cells exposed to light for 1 h and recovered for 3 h; POLD3 found by western blot
[3] = target: T2, GFP-RAD52-K141A (human) (UniProt P43351); assay: as above
T2 sequence: T1 sequence with K141A

[4] = target: T3, GFP-RAD52-K144A (human) (UniProt P43351); assay: as above
T3 sequence: T1 sequence with K144A

Measured: binding

B1: POLD3 (protein, UniProt Q15054 1-466)
chain: MADQLYLENIDEFVTDQNKIVTYKWLSYTLGVHVNQAKQMLYDYVERKRKENSGAQLHVTYLVSGSLIQNGHSCHKVAVVREDKLEAVKSKLAVTASIHVYSIQKAMLKDSGPLFNTDYDILKSNLQNCSKFSAIQCAAAVPRAPAESSSSSKKFEQSHLHMSSETQANNELTTNGHGPPASKQVSQQPKGIMGMFASKAAAKTQETNKETKTEAKEVTNASAAGNKAPGKGNMMSNFFGKAAMNKFKVNLDSEQAVKEEKIVEQPTVSVTEPKLATPAGLKKSSKKAEPVKVLQKEKKRGKRVALSDDETKETENMRKKRRRIKLPESDSSEDEVFPDSPGAYEAESPSPPPPPSPPLEPVPKTEPEPPSVKSSSGENKRKRKRVLKSKTYLDGEGCIVTEKVYESESCTDSEEELNMKTSSVHRPPAMTVKKEPREERKGPKKGTAALGKANRQVSITGFFQRK
binds: all assays above
